No constants are given. Whether binding was seen depends on the method and setting. Sequences can lack the tags named with a protein.
Molecular target: p75NTR (low affinity neurotrophin receptor, recombinant full-length)
Assay: AP-ligand binding to transfected COS-7 cells

B1: AP-sNgR^C-term (LRRCT domain together with the unique domain of NgR, residues 261-445, AP fusion) (receptor)
chain: PWVCDCRARPLWAWLQKFRGSSSEVPCNLPQRLAGRDLKRLAASDLEGCAVASGPFRPFQTNQLTDEELLGLPKCCQPDAADKASVLEPGRPASAGNALKGRVPPGDTPPGNGSGPRHINDSPFGTLPGSAEPPLTALRPGGSEPPGLPTTGPRRRPGCSRKNRTRSHCRLGQAGSGSSGTGDAE
notes: Soluble, made in HEK293T cells; also called AP-sNgRCTu [Pro261-Glu445]; AP-NgR^C-term; not shown: alkaline phosphatase (AP) tag
- binding: no binding

Reference: patent US20070032406A1 (UNIVERSITY OF ROCHESTER, published 2007)
